The text below walks through data of the supplement of paper PMC10338343.

± gives the standard deviation. The list shows a part of the results, in another mix than the full data. The uncertainty is large for many entries.

The first assay relates to MILI (PIWIL2) piRISC loaded with L1MC piRNA (26 nt). In words: pre-steady-state target cleavage rate (min^-1); MIWI and MILI are mouse PIWI proteins and EfPiwi is from a freshwater sponge; tags in brackets are library labels; higher = faster piRNA-guided slicing of the target. To be noted: guide: L1MC piRNA 5'p-UAACUAAAUACUAUGCAAGCUGUAGG; auxiliary factor: 500 nM mouse GTSF1. The protocol:
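Cleave-'n-Seq: a library of target RNAs (target site embedded in constant flanks, ACAGCATTCCGCGTTAGTGATATCCG... 5' flank; DNA-blocked outside the site) at 0.1 nM was incubated with 1 nM active mouse MILI or MIWI piRISC (synthetic 5'-monophosphorylated piRNA guide) with or without 500 nM mouse GTSF1 at 33 °C for 1 min to 16 h. Uncleaved targets were sequenced and normalised to non-target controls, and the pooled three trials were fitted to a burst-and-steady-state model to give the pre-steady-state cleavage rate (min^-1; k3 is constrained to at most 1e-4). Sequence is the target site only; target names encode pairing extent (gX:gY) and contiguous / 1-mismatch / 2-mismatch / bulge geometry. Fits with R² ≤ 0 are excluded.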
Take UCCUGGAUGUCCUUGCAUAGUAUUUAGGUUA: the “pre-steady-state target cleavage rate” value amounted to 0.0768 ± 0.019.

For the sequence UCCUGCUACAGCAACCAUAGUAUUUAGUUA, the “pre-steady-state target cleavage rate” value turned out to be 0.305 ± 0.04.

UCCUGGAUGUCGAAGCAUAGUAUUUCGUUA: the “pre-steady-state target cleavage rate” value worked out at 0.00855 ± 0.0046.

For UCCUCCUACAGCUUGCAUAGUAUUUAGUUUA, the “pre-steady-state target cleavage rate” value was 0.333 ± 0.019.

With UCCUCCUACAGCAUGCAUUGUAUUUAGUUA, the “pre-steady-state target cleavage rate” value stood at 0.217 ± 0.015.

For the sequence UCCUGGAUGUCGUUGCAUACUAUUAAGUUA, the “pre-steady-state target cleavage rate” value was 0.000876 ± 0.009.

On to UCCUGGAUGUCCAUGCAUAGUAUUAAGUUA, for which the “pre-steady-state target cleavage rate” value was determined as 0.0665 ± 0.018.

For UCCUCCUACAGCUUGCAAAGUAUUAAGUUA, the “pre-steady-state target cleavage rate” value is 0.0872 ± 0.014.

Turning to UCCUGGAUCAGCUAGCAUAGUAUUUAGAUA, the “pre-steady-state target cleavage rate” value came to 0.0957 ± 0.019.

For the sequence UCCUGGAUGUCCUUGCAUAGUAAUUUAGUUA, the “pre-steady-state target cleavage rate” value was found to be 0.0401 ± 0.013.

The assay is the same for the next values; noted with them: guide: L1MC piRNA 5'p-UAACUAAAUACUAUGCAAGCUGUAGG; auxiliary factor: none (no GTSF1).
Take UCCUGGAUGUCGAACCAUUCAAUUUAGUUA: the “pre-steady-state target cleavage rate” value is 0.000193 ± 0.025.

Take UCCUGGAUGUCCUUGCAUAGUAUUUAGGUUA: the “pre-steady-state target cleavage rate” value came to 0.00311 ± 0.0038.

Consider UCCUGGAUCAGCUACCAUAGUAUUUAGUAA, for which the “pre-steady-state target cleavage rate” value came out at 0.0025 ± 0.0026.

In the case of UCCUGGAUGUCCUUGCAUAGUAAAUAGUAA, the “pre-steady-state target cleavage rate” value worked out at 0.00143 ± 0.0049.

UCCUGCUACAGCUUGGAUAGUAUUUACAAA: the “pre-steady-state target cleavage rate” value is 0.000365 ± 0.011.

UCCUGGAACUGCUUGCAUAGAAUUUAGUUA: the “pre-steady-state target cleavage rate” value was 0.00212 ± 0.0032.

In the case of UCCUGCUACAGCAACCAUAGUAUUUAGUUA, the “pre-steady-state target cleavage rate” value amounted to 0.00278 ± 0.0039.

As to UCCUGGAUCAGCUUGCAAUGUAUUUACAAA, the “pre-steady-state target cleavage rate” value came to 0.0016 ± 0.0039.

UCCUGGAUGAGCUUGCAUUGUAUUUACAAA: the “pre-steady-state target cleavage rate” value came out at 0.00105 ± 0.0064.

For UCCUGGAUGUCGAAGCAUAGUAUUUAGAAA, the “pre-steady-state target cleavage rate” value came to 0.000619 ± 0.0088.

UCCUGGAACAGCUUGCAUAGUAUUAUCAAA: the “pre-steady-state target cleavage rate” value worked out at 0.00115 ± 0.0055.

Take UCCUGGAUGUCGAAGCAUAGUAUUUCGUUA: the “pre-steady-state target cleavage rate” value was 0.00116 ± 0.0052.

For the sequence UCCUCCUACAGCAUGCAUUGUAUUUAGUUA, the “pre-steady-state target cleavage rate” value stood at 0.0102 ± 0.0027.

Take UCCUGCUACAGCUUCGUUAGUAUUUAGAAA: the “pre-steady-state target cleavage rate” value is 0.000415 ± 0.012.

With UCCUGGAUGAGCUUGCAUUGUAUUUACUUA, the “pre-steady-state target cleavage rate” value worked out at 0.0012 ± 0.0059.

Turning to UCCUGGAUCUCGUUGCAUAGUAUUUACAAA, the “pre-steady-state target cleavage rate” value is 0.00211 ± 0.0037.

On to UCCUGGAUGUCGAACGUAAGUAUUUCGUUA, for which the “pre-steady-state target cleavage rate” value was found to be 0.000228 ± 0.016.

UCCUGGUACAGCUUGCAUAGUUAUUAGUAA: the “pre-steady-state target cleavage rate” value came out at 0.00164 ± 0.0042.

Turning to UCCUGGAUGUCGUUGCAUACUAUUAAGUUA, the “pre-steady-state target cleavage rate” value is 0.000346 ± 0.017.

In the case of UCCUGGAUGUGCUUGCUUAGAAUUUAGUUA, the “pre-steady-state target cleavage rate” value came to 0.00226 ± 0.0032.

On to UCCUGGAUGUCGUUCGUUAGUAUUUAGUUA, for which the “pre-steady-state target cleavage rate” value is 0.000416 ± 0.012.

As for UCCUGGAUGUCCAUGCAUAGUAUUAAGUUA, the “pre-steady-state target cleavage rate” value was 0.00161 ± 0.0046.

In the case of UCCUGGAACACCUUGCAUAGUUUUUAGUUA, the “pre-steady-state target cleavage rate” value turned out to be 0.00231 ± 0.003.

Regarding UCCUGGAUGUCGAACGUUAGUAUUAAGAUA, the “pre-steady-state target cleavage rate” value came to 0.000237 ± 0.017.

As to UCCUCCUACAGCUUGCAAAGUAUUAAGUUA, the “pre-steady-state target cleavage rate” value came to 0.00235 ± 0.0032.

Take UCCUGGAUCAGCUAGCAUAGUAUUUAGAUA: the “pre-steady-state target cleavage rate” value is 0.00275 ± 0.0026.

In the case of UCCUGGAUGAGCUUGCAUAGUAAAUACAAA, the “pre-steady-state target cleavage rate” value came out at 0.000652 ± 0.0095.

With UCCUGGAUGUCCUUCCAUAGUAUUUAGUAA, the “pre-steady-state target cleavage rate” value worked out at 0.000645 ± 0.0077.

As to UCCUGGAUGUCCUUGCAUAGUAAUUUAGUUA, the “pre-steady-state target cleavage rate” value stood at 0.00555 ± 0.0026.
